SMILES strings stand for the structures.

For this experiment, the system named is MOLM14. As to the kind of experiment: IC50 determination (proliferation assay, CellTiter-Blue). It is filed as cell-based. Particulars: Homo sapiens, MOLM-14. The procedure: Cell lines were seeded into 96-well plates the afternoon prior to treatment. Approximately 18 hours later, compounds were diluted in dimethyl sulfoxide (DMSO) and added to cells. Plates were incubated for 72 hours and cells viability determined with CellTiter-Blue Cell Viability Assay (Promega, Madison, WI). Plates were read after 4 additional hours of incubation at 37° C. using plate reader (Bio-Tek, Winooski. VT). Data was analyzed and graphed using GraphPad Prism Software (Graphpad. La Jolla, CA).
Compounds HSN352, HSN353. […] These compounds' proliferation inhibition (IC50) against MV4-11 and MOLM-14 (FLT3-driven AML cell lines) were determined (Table 6B).
In general terms: Alamar Blue is a resazurin reagent that responds to reducing activity.

Take `CO[C@@H]1[C@H](N(C)C(=O)c2ccccc2)C[C@H]2O[C@]1(C)n1c3ccccc3c3c4c(c5c6ccccc6n2c5c31)C(=O)NC4` [Midostaurin, midostaurin, reference compound]: the IC50 amounted to 7.37 ± 0.1 nM.

The term IC50 denotes the concentration at which inhibition is half-maximal. A higher IC50 goes with lower potency.
